Counter-ions that a name gives are not always drawn. For at least one compound, name, drawing or mass did not settle the structure.
What was measured:
5-HT2 = 5-HT2 (Rattus norvegicus, UniProt P14842); assay: receptor binding profile, 5-HT2; conditions: read-out: 5-HT2 Affinity is expressed as IC50
5-HT1A receptor sites = biological target: T1, 5-HT1A receptor sites (Rattus norvegicus, UniProt P19327); assay: receptor binding profile, 5-HT1A; conditions: read-out: 5-HT1A Affinity is expressed as IC50
T1 sequence (P19327 1-422): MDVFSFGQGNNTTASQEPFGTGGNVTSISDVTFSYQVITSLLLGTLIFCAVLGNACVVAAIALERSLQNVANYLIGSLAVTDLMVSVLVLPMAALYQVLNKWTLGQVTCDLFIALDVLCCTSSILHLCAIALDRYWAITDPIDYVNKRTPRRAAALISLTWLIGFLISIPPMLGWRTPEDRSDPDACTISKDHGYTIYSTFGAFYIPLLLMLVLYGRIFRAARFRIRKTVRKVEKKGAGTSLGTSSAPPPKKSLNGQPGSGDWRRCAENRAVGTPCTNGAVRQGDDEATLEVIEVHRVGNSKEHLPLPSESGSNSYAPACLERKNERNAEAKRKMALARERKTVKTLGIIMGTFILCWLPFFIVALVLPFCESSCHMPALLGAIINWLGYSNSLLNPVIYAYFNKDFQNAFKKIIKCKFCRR

Amino acid sequences for entries named in this document (tags omitted).
UniProt P14842, whole entry: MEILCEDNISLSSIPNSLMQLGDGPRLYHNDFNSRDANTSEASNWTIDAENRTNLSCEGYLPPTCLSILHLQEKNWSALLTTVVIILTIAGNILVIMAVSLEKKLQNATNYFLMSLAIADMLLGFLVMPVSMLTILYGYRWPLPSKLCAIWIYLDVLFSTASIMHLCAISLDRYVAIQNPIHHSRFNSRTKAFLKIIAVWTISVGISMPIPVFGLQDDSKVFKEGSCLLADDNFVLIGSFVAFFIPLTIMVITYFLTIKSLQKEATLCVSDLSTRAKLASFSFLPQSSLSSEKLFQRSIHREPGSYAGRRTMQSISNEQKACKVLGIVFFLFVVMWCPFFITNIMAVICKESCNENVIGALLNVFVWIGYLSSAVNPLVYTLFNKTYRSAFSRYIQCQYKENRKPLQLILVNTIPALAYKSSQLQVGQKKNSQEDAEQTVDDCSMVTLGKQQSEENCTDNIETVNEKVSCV
UniProt P18901, whole entry: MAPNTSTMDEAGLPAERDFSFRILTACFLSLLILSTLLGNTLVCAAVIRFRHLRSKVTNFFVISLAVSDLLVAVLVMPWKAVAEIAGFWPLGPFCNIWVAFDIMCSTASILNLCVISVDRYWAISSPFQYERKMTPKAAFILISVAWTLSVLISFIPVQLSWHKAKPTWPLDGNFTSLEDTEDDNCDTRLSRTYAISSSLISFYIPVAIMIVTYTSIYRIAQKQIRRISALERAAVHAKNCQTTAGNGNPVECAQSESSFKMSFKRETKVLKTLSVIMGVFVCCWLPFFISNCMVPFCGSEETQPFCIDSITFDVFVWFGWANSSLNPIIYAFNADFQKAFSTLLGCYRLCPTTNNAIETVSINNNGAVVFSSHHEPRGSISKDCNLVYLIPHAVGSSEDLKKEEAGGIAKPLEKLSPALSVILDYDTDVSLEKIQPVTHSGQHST

D1 = D1 (Rattus norvegicus, UniProt P18901); assay: receptor binding profile, D1; conditions: read-out: D1 Affinity is expressed as IC50

For COc1ccc2c(c1)CCc1sc(CCCN3CCN(c4ccccc4OC)CC3)nc1-2 [(6), 7-Methoxy-2-{3-[4-(2-methoxy-phenyl) -piperazin-1-yl]-propyl}-4,5-dihydro-naphtho[1,2-d]thiazole hydrochloride], which IC50 (5-HT2) is on record?
The IC50 was 0.17 µM.

And the IC50 (5-HT1A receptor sites)?
The IC50 was 0.034 µM.

And the IC50 (D1)?
Its IC50 is 1.86 µM.

Source: EP0851862B1, “1(HETERO)ARYL-4-(CONDENSED THIAZOL-2-YLALKYL)-PIPERAZINE DERIVATIVES, THEIR PREPARATION AND THEIR USE IN THE TREATMENT OF 5-HT1A-RECEPTOR MEDIATED DISORDERS” (Pharmacia Italia S.p.A., priority 1995, dated 1997)
